The results in this text go back to patent publication US20170209534A1, “Pseudhymenochirins As Agents For Treatment Of Cancer And Microbial Infections” (priority 2014, published 2017).

No end group written: not given here.

Format in all cases: cell-based
What all share (conditions): ratio of LC50 for HUVEC cells to LC50 for tumour cells

Data set [1] has as its system human colorectal adenocarcinoma HT-29 cells. Description: Viability assay (CellTiter-Glo, ATP), HT-29. Here is the method: (§1) For cytotoxicity assay, the effect of the peptides on three different types of cancer cells were analysed, human non-small cell lung adenocarcinoma A549 cells, human breast adenocarcinoma MDA-MB-231 cells and human colorectal adenocarcinoma HT-29 cells. As control, HUVEC cell line was selected.
(§2) A549 cell line was maintained in RPMI 1640 medium containing 2 mM L-glutamine and supplemented with 10% FCS at 37° C. MDA-MB-231 and HT-29 cell lines were maintained in DMEM medium supplemented with 10% FCS at 37° C. The medium for cancer cells were further supplemented with antibiotics, penicillin 50 U/mL and streptomycin […]. HUVEC cells were maintained in EndoGRO MV-VEGF Complete Media Kit at 37° C.
(§3) The cells from each of the four cell lines were seeded individually in a 96-wells plate at a cell density of 5×10^3 cells/well. […]
(§4) The effect of the peptides on the cell viability was determined by the measurement of the concentration of ATP using CellTitre-Glo Luminescent Cell Viability assay. Luminescent signals were measured using a GLOMAX Luminometer system.
(§5) The LC50 value was calculated for both the peptides for individual cell lines by conducting non-linear regression analysis using commercially available software (SPPS version 17.0; SPS Inc, Chicago, Ill., USA). […]

The test system of data set [2] is human non-small cell lung adenocarcinoma A549 cells. Description: Viability assay (CellTiter-Glo, ATP), A549. A general note: In ATP-based viability assays light output follows the ATP content of the culture.
In data set [3] the test system is human breast adenocarcinoma MDA-MB-231 cells. Description: Viability assay (CellTiter-Glo, ATP), MDA-MB-231. Here is the method:
as §1, §2, §3, §4, §5

Turning to “GIFPIFAKLLGKVIKVASSLISKGRTE [Pseudhymenochirin-2Pa, Pseudhymenochirin-2 Pa]”, in data set [1], the “Therapeutic index HT-29” value is given as 5.9. Moreover, the “Therapeutic index A549” value in data set [2] amounted to 11.3. The “Therapeutic index MDA-231” value in data set [3] was 11.0.
The like results for “IKIPSFFRNILKKVGKEAVSLIAGALKQS [Pseudhymenochirin-1Pb]” were, in that order, 0.6, 2.2 and 0.8.
